Laboratory results: article PMC7642682, “SPOR Proteins Are Required for Functionality of Class A Penicillin-Binding Proteins in Escherichia coli” (mBio, 2020)
These are yes or no findings as the source states them, for the method shown. In cells and extracts the contact can be indirect. Some binding calls cover weakened binding; strength is not graded here. Where a sequence is shown, tags or fusion partners need not be part of it. Blank lines part the entries; values can stand above or below the binder they belong to.

Experiments:
[1] = molecular target: T1, His-DedD (Escherichia coli) (UniProt P09549); assay: pull-down; protein couples coexpressed in E. coli C43(DE3) from pETDuet; membranes solubilized with 40 mM DDM; HisTrap (nickel) column in 25 mM Tris-HCl pH 7.5, 500 mM NaCl, 4 mM DDM; wash with 80 mM imidazole, elution with 80 to 500 mM imidazole; N-terminal His tag on the SPOR protein as bait; PBPs detected in fractions by Bocillin FL, SDS-PAGE, fluorescence imaging and Coomassie staining
T1 sequence: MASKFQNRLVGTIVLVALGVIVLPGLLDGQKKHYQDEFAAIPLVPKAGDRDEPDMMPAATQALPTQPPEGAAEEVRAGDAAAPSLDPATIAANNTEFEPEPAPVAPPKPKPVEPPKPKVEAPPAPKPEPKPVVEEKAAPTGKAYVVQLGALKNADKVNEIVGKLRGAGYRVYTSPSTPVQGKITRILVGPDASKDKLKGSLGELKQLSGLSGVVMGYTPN

[2] = molecular target: T2, His-DamX (Escherichia coli) (UniProt P11557); assay: as above
T2 sequence: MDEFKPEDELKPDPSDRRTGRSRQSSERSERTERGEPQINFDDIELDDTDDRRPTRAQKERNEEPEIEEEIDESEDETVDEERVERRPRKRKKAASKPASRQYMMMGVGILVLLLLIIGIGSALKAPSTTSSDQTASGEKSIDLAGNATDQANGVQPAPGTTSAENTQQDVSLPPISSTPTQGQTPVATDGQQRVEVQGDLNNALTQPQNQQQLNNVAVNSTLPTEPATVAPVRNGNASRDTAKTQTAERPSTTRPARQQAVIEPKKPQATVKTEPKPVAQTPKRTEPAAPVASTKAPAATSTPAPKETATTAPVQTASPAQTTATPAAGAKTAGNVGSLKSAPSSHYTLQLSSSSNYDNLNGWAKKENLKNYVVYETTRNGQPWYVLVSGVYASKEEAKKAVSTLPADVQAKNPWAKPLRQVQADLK

binding [1]: binds
B1: penicillin-binding protein 1A (PBP1A) (enzyme, UniProt P02918 1-850)
chain: MKFVKYFLILAVCCILLGAGSIYGLYRYIEPQLPDVATLKDVRLQIPMQIYSADGELIAQYGEKRRIPVTLDQIPPEMVKAFIATEDSRFYEHHGVDPVGIFRAASVALFSGHASQGASTITQQLARNFFLSPERTLMRKIKEVFLAIRIEQLLTKDEILELYLNKIYLGYRAYGVGAAAQVYFGKTVDQLTLNEMAVIAGLPKAPSTFNPLYSMDRAVARRNVVLSRMLDEGYITQQQFDQTRTEAINANYHAPEIAFSAPYLSEMVRQEMYNRYGESAYEDGYRIYTTITRKVQQAAQQAVRNNVLDYDMRHGYRGPANVLWKVGESAWDNNKITDTLKALPTYGPLLPAAVTSANPQQATAMLADGSTVALSMEGVRWARPYRSDTQQGPTPRKVTDVLQTGQQIWVRQVGDAWWLAQVPEVNSALVSINPQNGAVMALVGGFDFNQSKFNRATQALRQVGSNIKPFLYTAAMDKGLTLASMLNDVPISRWDASAGSDWQPKNSPPQYAGPIRLRQGLGQSKNVVMVRAMRAMGVDYAAEYLQRFGFPAQNIVHTESLALGSASFTPMQVARGYAVMANGGFLVDPWFISKIENDQGGVIFEAKPKVACPECDIPVIYGDTQKSNVLENNDVEDVAISREQQNVSVPMPQLEQANQALVAKTGAQEYAPHVINTPLAFLIKSALNTNIFGEPGWQGTGWRAGRDLQRRDIGGKTGTTNSSKDAWFSGYGPGVVTSVWIGFDDHRRNLGHTTASGAIKDQISGYEGGAKSAQPAWDAYMKAVLEGVPEQPLTPPPGIVTVNIDRSTGQLANGGNSREEYFIEGTQPTQQAVHEVGTTIIDNGEAQELF

binding [1]: binds
binding [2]: binds
B2: penicillin-binding protein 1B (PBP1B) (enzyme, UniProt P02919 1-844)
chain: MAGNDREPIGRKGKPTRPVKQKVSRRRYEDDDDYDDYDDYEDEEPMPRKGKGKGKGRKPRGKRGWLWLLLKLAIVFAVLIAIYGVYLDQKIRSRIDGKVWQLPAAVYGRMVNLEPDMTISKNEMVKLLEATQYRQVSKMTRPGEFTVQANSIEMIRRPFDFPDSKEGQVRARLTFDGDHLATIVNMENNRQFGFFRLDPRLITMISSPNGEQRLFVPRSGFPDLLVDTLLATEDRHFYEHDGISLYSIGRAVLANLTAGRTVQGASTLTQQLVKNLFLSSERSYWRKANEAYMALIMDARYSKDRILELYMNEVYLGQSGDNEIRGFPLASLYYFGRPVEELSLDQQALLVGMVKGASIYNPWRNPKLALERRNLVLRLLQQQQIIDQELYDMLSARPLGVQPRGGVISPQPAFMQLVRQELQAKLGDKVKDLSGVKIFTTFDSVAQDAAEKAAVEGIPALKKQRKLSDLETAIVVVDRFSGEVRAMVGGSEPQFAGYNRAMQARRSIGSLAKPATYLTALSQPKIYRLNTWIADAPIALRQPNGQVWSPQNDDRRYSESGRVMLVDALTRSMNVPTVNLGMALGLPAVTETWIKLGVPKDQLHPVPAMLLGALNLTPIEVAQAFQTIASGGNRAPLSALRSVIAEDGKVLYQSFPQAERAVPAQAAYLTLWTMQQVVQRGTGRQLGAKYPNLHLAGKTGTTNNNVDTWFAGIDGSTVTITWVGRDNNQPTKLYGASGAMSIYQRYLANQTPTPLNLVPPEDIADMGVDYDGNFVCSGGMRILPVWTSDPQSLCQQSEMQQQPSGNPFDQSSQPQQQPQQQPAQQEQKDSDGVAGWIKDMFGSN
